Assay results: the supplement of paper PMC10727501
Some of the results follow. This data set is noisy: repeats of one test often differ as much as different tests do.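 Free-swimming zebrafish larvae were assessed for O-bend response probability to dark flashes (naive: first five; training: remaining flashes across four 60-flash blocks; test: later 60-flash block) and for OMR turning toward alternating leftward/rightward LED motion. Six treated larvae were compared against sixty 0.1% DMSO controls; hits required |SSMD|≥2.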

tested on: Danio rerio larvae (5 dpf, TLF); experiment: OMR-Perf (SSMD vs DMSO vehicle); higher = higher than vehicle (e.g. higher dark-flash O-bend response probability, or better optomotor performance); details: 10 µM; pre-incubation: 30-90 min

| SMILES | OMR-Perf |
| --- | --- |
| CCc1cccc(CC)c1NC(=O)N1Cc2[nH]nc(NC(=O)c3ccc(N4CCN(C)CC4)cc3)c2C1 | 0.272 |
| CCCc1nn(C)c2c(=O)[nH]c(-c3cc(S(=O)(=O)N4CCN(C)CC4)ccc3OCC)nc12.O=C(O)CC(O)(CC(=O)O)C(=O)O [Sildenafil Citrate] | 0.251 |
| N#Cc1c(O)c2c(-c3ccc(-c4ccccc4O)cc3)csc2[nH]c1=O | -0.638 |
| COc1cc(N2CCC(N)CC2)ccc1Nc1ncc(Cl)c(-c2c[nH]c3ccccc23)n1 | 0.571 |
| COc1ccc(C2=NC(c3ccc(Cl)cc3)C(c3ccc(Cl)cc3)N2C(=O)N2CCNC(=O)C2)c(OC(C)C)c1 (stereo not given) [Nutlin-3] | -0.0928 |
| O=C1c2ccc(Nc3ccc(F)cc3F)cc2CCc2ccc(OC[C@H](O)CO)cc21 [Skepinone-L] | -0.294 |
| O=C1NC(=O)/C(=C/c2ccc(-c3ccc(F)cc3O)o2)S1 | -0.386 |
| Cc1c(Cc2ccc3ccccc3n2)c2cc(F)ccc2n1CC(=O)O | -0.563 |
| Cc1onc(-c2ccccc2)c1-c1ccc(S(N)(=O)=O)cc1 [Valdecoxib] | -0.332 |
| Cc1ccnc2c1NC(=O)c1cccnc1N2C1CC1 [Nevirapine] | 0.29 |
| COc1ccc(C(=O)CC(=O)c2ccc(C(C)(C)C)cc2)cc1 [Avobenzone] | 0.117 |
| COCCOc1ccc2c(c1)ncn2-c1ccc2cccc(N3CCC(N)CC3)c2n1 | 0.257 |
| NC(=O)c1cccnc1 [Nicotinamide (Vitamin B3)] | -0.0454 |
| O=C(CCc1ccc(O)cc1)c1c(O)cc(O)cc1O[C@@H]1O[C@H](CO)[C@@H](O)[C@H](O)[C@@H]1O [Phlorizin] | -0.284 |
| O=c1c(O)c(-c2cc(O)c(O)c(O)c2)oc2cc(O)cc(O)c12 [Myricetin] | -0.289 |
| C[N+](C)(C)CC(O)CC(=O)O.[Cl-] (racemic) [DL-Carnitine HCl] | -0.233 |
| Oc1ccc([C@H]2COc3cc(O)ccc3C2)cc1 [Equol] | 1.16 |
| N[C@@H]1CCCC[C@H]1N.O=C([O-])C(=O)[O-].[Pt+2] [Oxaliplatin] | 0.307 |
| O=C(Oc1cc(S(=O)(=O)c2ccccc2)ccc1[N+](=O)[O-])c1ccc(Cl)cc1 | -0.55 |
| C=CCNC1=C2C[C@@H](C)C[C@H](OC)[C@H](O)[C@@H](C)/C=C(\C)[C@H](OC(N)=O)[C@@H](OC)/C=C\C=C(\C)C(=O)NC(=CC1=O)C2=O [17-AAG (Tanespimycin)] | 0.027 |

| SMILES | OMR-Perf |
| --- | --- |
| CC1=C(/C=C/C(C)=C\C=C\C(C)=C/C(=O)O)C(C)(C)CCC1 [Isotretinoin] | 0.322 |
| Cc1ccc(F)c(NC(=O)Nc2ccc(-c3cccc4[nH]nc(N)c34)cc2)c1 [Linifanib (ABT-869)] | -0.156 |
| COc1ccccc1OCC(O)CN1CCN(CC(=O)Nc2c(C)cccc2C)CC1 (stereo not given) [Ranolazine] | -0.241 |
| O=C(Nc1ccc2c(=O)cc(-c3nnn[nH]3)oc2c1)c1ccc(OCCCCc2ccccc2)cc1 [Pranlukast] | 0.0925 |
| CN(c1ncccc1CNc1nc(Nc2ccc3c(c2)CC(=O)N3)ncc1C(F)(F)F)S(C)(=O)=O | -0.865 |
| CC(C)[C@@H](C)/C=C/[C@@H](C)[C@@H]1CC[C@H]2C3=CC=C4C[C@@H](O)CC[C@]4(C)[C@@H]3CC[C@@]21C [Ergosterol] | -0.202 |
| CN(C)Cc1ccc(S(=O)(=O)n2ccc(/C=C/C(=O)NO)c2)cc1 [Resminostat] | 0.42 |
| Clc1ccc2c(c1)CCc1cccnc1C2=C1CCNCC1 [Desloratadine] | -0.303 |
| COc1cc(F)c(C(C)C)cc1-c1ccc(C(F)(F)F)cc1CN1C(=O)O[C@H](c2cc(C(F)(F)F)cc(C(F)(F)F)c2)[C@H]1C [Anacetrapib (MK-0859)] | 0.524 |
| COc1ccc(C2C(=O)c3ccccc3C2=O)cc1 [Anisindione] | 0.101 |
| COc1ccc(/C=C/C(=O)Nc2ccccc2C(=O)O)cc1OC [Tranilast] | -0.338 |
| CC(C)(C)/[N+]([O-])=C/c1ccc(S(=O)(=O)[O-])cc1S(=O)(=O)[O-].[Na+].[Na+] | -0.0186 |
| CC1(COc2ccc3c(c2)ncn3-c2ccc3cccc(N4CCC(N)CC4)c3n2)COC1 | -0.0927 |
| Cl.Clc1ccc2nsnc2c1NC1=NCCN1 [Tizanidine HCl] | -0.299 |
| O=C1NC(=O)C(c2ccccc2)(c2ccccc2)N1 [Phenytoin] | -0.204 |
| CS(=O)(=O)O.O=C(Nc1cccc(Cl)c1)Nc1ncc(CCNc2ncnc3ccsc23)s1 [SNS-314 Mesylate] | -0.341 |
| N#CSc1cc(SC#N)c(N)nc1N | -0.139 |
| Cc1nc2n(c(=O)c1CCN1CCC(c3noc4cc(F)ccc34)CC1)CCC[C@H]2O [Paliperidone (Invega)] | -0.714 |
| Br.CCCC(CCC)C(=O)OC1C[C@H]2CC[C@@H](C1)[N+]2(C)C (stereo not given in full) [Anisotropine Methylbromide] | -0.0711 |
| COc1cc(Nc2nc3ccccc3nc2NS(=O)(=O)c2ccc(NC(=O)c3ccc(C)c(OC)c3)cc2)cc(OC)c1 | 0.679 |

Sorted by molecular weight (rising): 3 of the compounds above.

| SMILES | OMR-Perf |
| --- | --- |
| Cc1onc(-c2ccccc2)c1-c1ccc(S(N)(=O)=O)cc1 [Valdecoxib] | -0.332 |
| N#Cc1c(O)c2c(-c3ccc(-c4ccccc4O)cc3)csc2[nH]c1=O | -0.638 |
| Cc1ccc(F)c(NC(=O)Nc2ccc(-c3cccc4[nH]nc(N)c34)cc2)c1 [Linifanib (ABT-869)] | -0.156 |
